Some of the results follow.
target: OsWRKY34 (Oryza sativa, UniProt Q0JBA9 1-250); assay: protein-binding microarray (RPBM); PBS, 2% BSA, 51.3 ng/ul salmon testes DNA, 50 uM zinc acetate, 200 nM TF, 25 C, 1 h; high values mean tight binding; conditions: protein: recombinant; tags: N-terminal polyhistidine and DsRed monomer fusion (pET32a); label: CyDye5-dUTP incorporated in the synthesized complementary strand; 3' TTTTT single-stranded linker to array surface; dsDNA, one strand shown
Outline: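 The binding signal for each feature is its fluorescence intensity in arbitrary units. An Axon 4000B scanner was used to read a custom Agilent array that had been made double-stranded with Cy5-dUTP primer extension, blocked with 2% BSA, incubated at 25 °C for 1 h with 200 nM protein in PBS, 2% BSA, salmon testes DNA and 50 µM zinc acetate, and washed. The protein was an N-terminal polyhistidine–DsRed transcription factor fusion from E. coli BL21-CodonPlus, purified on Ni–NTA.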

By UniProt entry, the sequences of proteins in these tests, tags left out.
UniProt Q0JBA9, entry or part of it: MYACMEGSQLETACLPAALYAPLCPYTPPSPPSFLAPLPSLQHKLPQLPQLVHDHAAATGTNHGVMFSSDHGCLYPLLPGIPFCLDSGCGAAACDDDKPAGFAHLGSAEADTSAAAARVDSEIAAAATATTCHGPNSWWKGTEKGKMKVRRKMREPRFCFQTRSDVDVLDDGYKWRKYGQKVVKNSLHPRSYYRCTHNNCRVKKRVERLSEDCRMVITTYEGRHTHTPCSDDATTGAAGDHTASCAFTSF

**Q.** With “ATGCGTGCTGCCGACTGCCGAGTGTCACCGAATCCTTAATCGGAGTCACCTAGTGCAG” as the sequence, how does the binding signal read?
**A.** 8280 fluorescence intensity (a.u.)

**Q.** “GCCCACTAAAACAATCCGGCCAGTTAACACTTCACACCCCCGGAGTCACCTAGTGCAG” was tested. Which binding signal did it give?
**A.** 8730 fluorescence intensity (a.u.)

**Q.** With “TGGTCACCTGGGAAGGTCGCTGTCTCTGCCTTTTGTTTTCCGGAGTCACCTAGTGCAG” as the sequence, how does the binding signal read?
**A.** 13300 fluorescence intensity (a.u.)

**Q.** With “AAAATTTCTGCTTCAAATTTCCCATCCTGTCCTTAAGCCGCGGAGTCACCTAGTGCAG” as the sequence, how does the binding signal read?
**A.** 8040 fluorescence intensity (a.u.)

**Q.** With “GCCATCGTCCTTATCTGCATCAGTAAAGTCAATGGCCATCCGGAGTCACCTAGTGCAG” as the sequence, how does the binding signal read?
**A.** 10300 fluorescence intensity (a.u.)

**Q.** “TTCTCCACCCACCTCCTCATCTAAACAATCACAACAATTTCGGAGTCACCTAGTGCAG” was tested. Which binding signal did it give?
**A.** 8370 fluorescence intensity (a.u.)

**Q.** “CCATTCTCGTTTTCCACGGCTCAACCGCTCTCTTCGCTCGCGGAGTCACCTAGTGCAG” was tested. Which binding signal did it give?
**A.** 9330 fluorescence intensity (a.u.)

**Q.** Which binding signal does the source give for “CATGCCAGGTGTTGGGCCTCATCGTCGGCCGCTTAGTATCCGGAGTCACCTAGTGCAG” here?
**A.** 8380 fluorescence intensity (a.u.)

**Q.** “TCTTTTTGGTAGGTACTTTGGCTGCGTTCCGCCGTACGTTCGGAGTCACCTAGTGCAG” was tested. Which binding signal did it give?
**A.** 9510 fluorescence intensity (a.u.)

**Q.** “ACGCACCTGCACATTTGGAACTTGTACTACACGTGTTTCACGGAGTCACCTAGTGCAG” was tested. Which binding signal did it give?
**A.** 8320 fluorescence intensity (a.u.)

**Q.** For “CCGCGGTGGGGCATGGTGGTGAGGTGGGAGGGAGGGAGCTCGGAGTCACCTAGTGCAG”, which binding signal is on record?
**A.** 17100 fluorescence intensity (a.u.)

**Q.** “GACTCCTCGGCCACCTCCTTCCGCTGCGCCACCGCCGCCGCGGAGTCACCTAGTGCAG” was tested. Which binding signal did it give?
**A.** 9600 fluorescence intensity (a.u.)

**Q.** For “TAGTTTAGCATTATCGTGTTCTCTCTGGAAGCAGTTCTTCCGGAGTCACCTAGTGCAG”, which binding signal is on record?
**A.** 9410 fluorescence intensity (a.u.)

**Q.** Which binding signal does the source give for “CCACCGCCGCCGCTTCCCCGCCCGCCGGCCGCCTACGCCACGGAGTCACCTAGTGCAG” here?
**A.** 8650 fluorescence intensity (a.u.)

**Q.** For “CACTAGTTTGTGAATCTGTTATCTTGTTCCTTTTTTACCTCGGAGTCACCTAGTGCAG”, which binding signal is on record?
**A.** 11200 fluorescence intensity (a.u.)

**Q.** Which binding signal does the source give for “CTCCGCACAAACACACATATACTCCACATATCCAGCTGCACGGAGTCACCTAGTGCAG” here?
**A.** 8990 fluorescence intensity (a.u.)

**Q.** Which binding signal does the source give for “CTTCCAGGGCCTCTTCCACACCCCGCCCCAGCACAACCCGCGGAGTCACCTAGTGCAG” here?
**A.** 9690 fluorescence intensity (a.u.)

**Q.** With “TTGCATATAACTATGTTGTACCTCCTCCGTTTCATATTACCGGAGTCACCTAGTGCAG” as the sequence, how does the binding signal read?
**A.** 8460 fluorescence intensity (a.u.)

**Q.** Which binding signal does the source give for “AGTTATTTGGAGCATTCTTCAGTTCGTCCATCTAGCCTGACGGAGTCACCTAGTGCAG” here?
**A.** 10600 fluorescence intensity (a.u.)

**Q.** “CCAACAACGCTCCATCTCTCACTTGCCTCAAATGCAACTACGGAGTCACCTAGTGCAG” was tested. Which binding signal did it give?
**A.** 8820 fluorescence intensity (a.u.)

**Q.** Which binding signal does the source give for “GGTATTTTTGCTAGTCAAGTTTTATTATTTTACTTGACAACGGAGTCACCTAGTGCAG” here?
**A.** 9980 fluorescence intensity (a.u.)

**Q.** How did the binding signal turn out when “TTGGCTTATGAGTTATGTTCTGCCATTTGTACGTATTACACGGAGTCACCTAGTGCAG” was run?
**A.** 10500 fluorescence intensity (a.u.)

**Q.** Which binding signal does the source give for “AGTTAATTAGCACCCCTGTGGCTACCATCGATCTGTCTAACGGAGTCACCTAGTGCAG” here?
**A.** 10800 fluorescence intensity (a.u.)

**Q.** How did the binding signal turn out when “GTGCTGCCGCGTTCAATTCGCCGCTGCTTGGTCTCGTTTGCGGAGTCACCTAGTGCAG” was run?
**A.** 8610 fluorescence intensity (a.u.)

**Q.** “CCTCGTCGTCGTCCTCGTCGTTCCGCCGCGGCGGTAGCAACGGAGTCACCTAGTGCAG” was tested. Which binding signal did it give?
**A.** 8090 fluorescence intensity (a.u.)

**Q.** “TTGTTGTTTACGTATTTCATATCTCTAAAAATATTTTTTACGGAGTCACCTAGTGCAG” was tested. Which binding signal did it give?
**A.** 10500 fluorescence intensity (a.u.)

**Q.** How did the binding signal turn out when “CACCACCGCGCCGCCACGCGACAAACCCCGCGGAGGCAGACGGAGTCACCTAGTGCAG” was run?
**A.** 8060 fluorescence intensity (a.u.)

**Q.** “AATTAGCTCGATCATCACACTGTATATGTTTGTATGTCCTCGGAGTCACCTAGTGCAG” was tested. Which binding signal did it give?
**A.** 8650 fluorescence intensity (a.u.)

**Q.** With “CCGCGTCACTGGCTGAGAGCGCCATTAATTCACTCTCGTTCGGAGTCACCTAGTGCAG” as the sequence, how does the binding signal read?
**A.** 8410 fluorescence intensity (a.u.)

**Q.** With “GGGTTTCTTCATGCTCCTTGTCAGCCCATCACTTCTACTACGGAGTCACCTAGTGCAG” as the sequence, how does the binding signal read?
**A.** 13200 fluorescence intensity (a.u.)

**Q.** For “GTAGTGGCTAGGAGCTATATTGGTTGGGGAGGAGCGCCCACGGAGTCACCTAGTGCAG”, which binding signal is on record?
**A.** 9340 fluorescence intensity (a.u.)

**Q.** With “GTCGGGGAGGTCGGGGTCAGGGAGGTCGGGGCCGGTGATGCGGAGTCACCTAGTGCAG” as the sequence, how does the binding signal read?
**A.** 18900 fluorescence intensity (a.u.)

**Q.** Which binding signal does the source give for “TATCTATCACCACTTTCTGTACTGCTATTGTTGTTCTTACCGGAGTCACCTAGTGCAG” here?
**A.** 12400 fluorescence intensity (a.u.)

**Q.** With “TCACTGATTACAGGCACTCCTCTCCGATCCAACATAATTACGGAGTCACCTAGTGCAG” as the sequence, how does the binding signal read?
**A.** 8430 fluorescence intensity (a.u.)

**Q.** How did the binding signal turn out when “ATTTGTCTCTTGTGCCTTACATGATATATGCATGTTTTTTCGGAGTCACCTAGTGCAG” was run?
**A.** 12800 fluorescence intensity (a.u.)

**Q.** Which binding signal does the source give for “TAGTGTTAGTTACTACTCCTACAATTTCATTTGTTGCCACCGGAGTCACCTAGTGCAG” here?
**A.** 8650 fluorescence intensity (a.u.)

**Q.** With “CACCGCCACGCGTATTTCCGGCCCAAACCAGCCCAACTGCCGGAGTCACCTAGTGCAG” as the sequence, how does the binding signal read?
**A.** 9480 fluorescence intensity (a.u.)

**Q.** With “CTGTTGGCACTTACACAATCACATTCACATTTGGTGTTTTCGGAGTCACCTAGTGCAG” as the sequence, how does the binding signal read?
**A.** 8630 fluorescence intensity (a.u.)

**Q.** Which binding signal does the source give for “ACCTCTCATATACCACCATCTCTGCATGCTCAAGAACATCCGGAGTCACCTAGTGCAG” here?
**A.** 8270 fluorescence intensity (a.u.)

**Q.** “AGCCTCATCTTTTTCTTATACTTAAATTTGACTTTTTAATCGGAGTCACCTAGTGCAG” was tested. Which binding signal did it give?
**A.** 10500 fluorescence intensity (a.u.)

**Q.** “TCTCGGCAAGACCCACCACATACCATGTCCTATACGAAAGCGGAGTCACCTAGTGCAG” was tested. Which binding signal did it give?
**A.** 12700 fluorescence intensity (a.u.)

**Q.** For “ATCAGCCCATATCGATTTTTACTGCTAGTATTTATTTGAGCGGAGTCACCTAGTGCAG”, which binding signal is on record?
**A.** 8080 fluorescence intensity (a.u.)

Source: article PMC7819943, “Rice protein-binding microarrays: a tool to detect cis-acting elements near promoter regions in rice”
